No constants are given. Whether binding was seen depends on the method and setting. In cells and extracts the contact can be indirect.

Amino acid sequences for entries named in this document (tags omitted). Residues count along the entry.
UniProt P05453, residues 124-685: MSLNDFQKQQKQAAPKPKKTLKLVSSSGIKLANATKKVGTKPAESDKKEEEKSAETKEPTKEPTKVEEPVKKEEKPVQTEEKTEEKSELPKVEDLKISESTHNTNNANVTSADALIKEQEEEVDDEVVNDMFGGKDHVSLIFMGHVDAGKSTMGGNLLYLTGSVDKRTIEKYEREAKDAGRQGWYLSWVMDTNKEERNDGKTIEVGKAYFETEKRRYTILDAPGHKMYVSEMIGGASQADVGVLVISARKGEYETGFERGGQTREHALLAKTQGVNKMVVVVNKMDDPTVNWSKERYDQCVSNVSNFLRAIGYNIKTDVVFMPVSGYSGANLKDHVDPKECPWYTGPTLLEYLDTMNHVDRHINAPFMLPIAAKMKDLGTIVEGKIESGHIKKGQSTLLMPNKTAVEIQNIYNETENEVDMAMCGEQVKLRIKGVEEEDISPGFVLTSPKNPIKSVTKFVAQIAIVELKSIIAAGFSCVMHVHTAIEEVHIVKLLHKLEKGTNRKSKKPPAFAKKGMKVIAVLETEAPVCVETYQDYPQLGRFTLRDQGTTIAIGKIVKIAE
UniProt P31539: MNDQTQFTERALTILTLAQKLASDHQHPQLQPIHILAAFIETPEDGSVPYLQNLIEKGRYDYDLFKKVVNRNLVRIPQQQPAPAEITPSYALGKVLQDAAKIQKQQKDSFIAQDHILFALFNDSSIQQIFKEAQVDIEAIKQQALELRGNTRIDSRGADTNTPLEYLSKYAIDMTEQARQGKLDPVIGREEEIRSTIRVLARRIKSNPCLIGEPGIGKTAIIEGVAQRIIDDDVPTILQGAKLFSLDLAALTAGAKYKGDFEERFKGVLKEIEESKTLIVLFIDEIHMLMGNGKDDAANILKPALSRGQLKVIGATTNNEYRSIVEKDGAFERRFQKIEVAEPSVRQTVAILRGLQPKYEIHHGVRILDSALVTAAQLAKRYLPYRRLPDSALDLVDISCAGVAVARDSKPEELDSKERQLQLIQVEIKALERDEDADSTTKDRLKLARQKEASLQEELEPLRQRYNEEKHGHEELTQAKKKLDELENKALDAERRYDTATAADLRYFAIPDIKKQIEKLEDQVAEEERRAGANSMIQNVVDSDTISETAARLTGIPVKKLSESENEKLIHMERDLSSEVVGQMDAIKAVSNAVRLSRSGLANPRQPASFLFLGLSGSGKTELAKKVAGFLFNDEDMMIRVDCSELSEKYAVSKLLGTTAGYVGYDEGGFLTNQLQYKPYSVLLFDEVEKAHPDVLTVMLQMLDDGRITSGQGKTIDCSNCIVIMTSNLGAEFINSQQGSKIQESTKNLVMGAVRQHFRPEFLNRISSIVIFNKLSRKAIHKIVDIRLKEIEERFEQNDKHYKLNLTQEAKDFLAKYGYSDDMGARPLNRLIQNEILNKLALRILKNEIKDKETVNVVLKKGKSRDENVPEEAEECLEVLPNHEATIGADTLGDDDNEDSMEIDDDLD

The assay has as its target MRF (HA-tagged Sup35p without the 123 N-terminal amino acids which constitute the prion, N, domain) (S. cerevisiae) (UniProt P05453). Description: co-IP; 800 μg of lysate proteins with anti-HA antibodies on agarose beads, 1.5 hrs at 4°C, washed with PBS with 0.05% Tween 20; blots with anti-RF and anti-Hsp104.

Hsp104 (from UniProt P31539 1-908): the binding entry is “no binding”.

The values are drawn from publication PMC1594584.
